Data published in US11679102B2, “Method for inhibiting virus infection and replication” (Chang Gung University, priority 2020, dated 2023).
For at least one compound, name, drawing or mass did not settle the structure.

Tests used:
HCoV-229E [1] = assay: Cell viability of HCoV-229E-infected LLC-MK2 cells (CellTiter96 Aqueous One Solution); format: cell-based, human coronavirus 229E; details: pretreated 1 hour at 0-120 μM, HCoV-229E m.o.i. 0.01, 7 d.p.i.; FIG. 13
Experimental: Wild-type RD cells and LLC-MK2 cells were seeded at a concentration of 2000 cells per well into respective wells of 96-well plates containing DMEM and 10% FBS. […] Mock-infected RD and LLC-MK2 cells served as control groups. CV-A6-infected and mock-infected RD cells, and HCoV-229E-infected and mock-infected LLC-MK2 cells were subjected to cell viability determination using CellTiter96 Aqueous One Solution Cell Proliferation Assay (Promega).

HCoV-229E [2] = assay: Virus titer of HCoV-229E in infected LLC-MK2 cells (viral plaque assay); details: pretreated 1 hour with ferrostatin-1 40 μM or troglitazone 10 μM; m.o.i. 0.01; 1, 2, 3 d.p.i.; FIG. 15 upper panel
HCoV-OC43 = assay: Virus titer of HCoV-OC43 in infected Vero E6 cells (viral plaque assay); details: pretreated 1 hour with ferrostatin-1 40 μM or troglitazone 10 μM; m.o.i. 0.01; 1, 2, 3 d.p.i.; FIG. 15 lower panel
RD cells = assay: Lipid peroxidation (BODIPY 581/591-C11, flow cytometry) in RSL3-treated RD cells pretreated with ferroptosis inhibitors; details: wild-type RD cells pretreated 1 hour with ferrostatin-1 100 μM or troglitazone 20 μM, then 1 μM RSL3 for 36 hours; vs DMSO control; FIG. 11 upper panel

Cc1c(C)c2c(c(C)c1O)CCC(C)(COc1ccc(CC3SC(=O)NC3=O)cc1)O2 (stereo not shown) [troglitazone]
Cell viability of HCoV-229E-infected LLC-MK2 cells (HCoV-229E [1]): increasing cell viability | Viral yields (virus titer) of HCoV-229E in infected LLC-MK2 cells vs DMSO control group (HCoV-229E [2]): significantly lower | Viral yields (virus titer) of HCoV-OC43 in infected Vero E6 cells vs DMSO control group (HCoV-OC43): significantly lower | RSL3-induced increase in lipid peroxidation level (relative BODIPY 581/591-C11 level) (RD cells): significantly diminished
